From patent USRE39682E1, “Farnesyl derivatives and pharmaceutical compositions containing them” (Ramot at Tel Aviv University Ltd., priority 1993, dated 2007)
Some results were stated once for a whole list of compounds, not compound by compound.

Columns and labels:
[1] = tested on: Ha-ras-transformed rat1 cells; assay: Growth of ras-transformed rat1 cells (cell counting); type: cell-based, rat; conditions: days 7 and 10 of treatment, drugs one day after plating
Source text: The cell lines employed were rat1, -EJ, which are rat1 cells stably expressing Val- 12 activated human Ha-ras gene (Land H. et al., Nature, 304, 596-602, (1983)); V-raf-3T3, which are 3T3 cells stably expressing the V-raf gene (Xu, N., et al., Proc. Natl. Acad. Sci., 90, 6741-6745); RB-22, which are 3T3 cells stably expressing the rat Erb-B2 gene (Peles, et al., EMBO J., 10, 2077-2086 (1991)) CO6O cells (SV40-CHO), which are CHE cells stably expressing the SV-40 T-antigen gene (Lavi, Proc. Natl. Acad. Sci., 78, 6144-6148 (1981)); human endometrial carcinoma cell line HEC1A, which are cells that express activated K-ras (Enomoto T., Cancer Res., 50, 6139-6145; mouse B16F10 melanoma cells, rat pheochromocytoma PC12 cells, […] cells CHE and COS cells.
HEC1A, V-raf-3T3 and SV40-CHE cells were grown in Dulbecco's modified Eagle medium (DMEM) containing 10% fetal calf serum (FCS), 4 mM L-glutamine, 10 μg/ml streptomycin and 10 U/ml penicillin. Rat1 and -EJ cells were grown in the same medium except that it was supplemented with 12.5 U/ml nyostatin. […]
Cells were counted following 3, 7 and 10 days of beginning of treatments with drugs. […] The pelleted cells were resuspended in a small volume of DMEM/10% FCS and counted under the microscope. […]

[2] = tested on: HEC1A, rat1 and ras-transformed rat1 cells; assay: In vitro toxicity: MTT and trypan blue staining; type: cell-based; conditions: 50 μM, up to 5 days in culture
Source text: Cells were counted following 3, 7 and 10 days of beginning of treatments with drugs. For counting, cells were detached from plates with trypsin/EDTA, and collected by a low speed spin in the presence of DMEM/10% FCS. The pelleted cells were resuspended in a small volume of DMEM/10% FCS and counted under the microscope. Viability of cells was estimated by staining with (3-(4,5-dimethylthiosol-2-yl)-2,5-diphenyltetrazolium bromide (MTT) and microscopic examination of the stained and unstained cells, or spectrophotometric estimation (OD490, 590) of the total stain in each well. Non viable cells were estimated by the trypan blue exclusion method.
In order to determine the long term effects of both FTA and FTS on cell survival, a colorometric method using MTT, which stains only live cells, was employed (Mosmen, F. J. Immunol. Meth., 65, 55-63 (1983), and tryptan blue exclusion staining in which only dead cells are stained, were employed. Cells were incubated with 50 μM of either FTA or FTS for a period of up to 5 days in culture. This concentration is 10-30 times the Ki values of FTS and FTA as calculated above. As control served cells incubated in 0.1% DMSO with no drug.

Row | SMILES | inhibition of cell growth [1] | cells stained with MTT (viable) [2] | cells stained with trypan blue (dead) [2]
1 | CC(C)=CCC/C(C)=C/CC/C(C)=C/CSCC(=O)O [FTA, S-trans, trans-farnesylthioacetic acid, reference compound] | 40-60% | more than 95% | less than 5%
2 | CC(C)=CCC/C(C)=C/CC/C(C)=C/CSc1ccccc1C(=O)O [FTS, (3,7,11-trimethyl-dodeca-2,6,10-trienyl)-2-thiobenzoic acid] |  | more than 95% | 
